From patent US10159738B2, “Organic-inorganic hybrid solid having a modified outer surface” (CENTRE NATIONAL DE LA RECHERCHE SCIENTIFIQUE-CNRS, priority 2012, dated 2018)

Experiment: ITC characterization of interaction with MIL-100
Settings: aqueous suspension of MIL-100 1.5 mg/ml

Compound	ITC signal on titration into MIL-100 suspension
OC[C@H]1O[C@@H]2O[C@H]3[C@H](O)[C@@H](O)[C@@H](O[C@H]4[C@H](O)[C@@H](O)[C@@H](O[C@H]5[C@H](O)[C@@H](O)[C@@H](O[C@H]6[C@H](O)[C@@H](O)[C@@H](O[C@H]7[C@H](O)[C@@H](O)[C@@H](O[C@H]8[C@H](O)[C@@H](O)[C@@H](O[C@H]1[C@H](O)[C@H]2O)O[C@@H]8CO)O[C@@H]7CO)O[C@@H]6CO)O[C@@H]5CO)O[C@@H]4CO)O[C@@H]3CO [βCD, β cyclodextrin]	no signal was observed
β cyclodextrin phosphate [βCDP]	complex reaction, involving exothermic and endothermic effects
